Laboratory results from paper PMC10353998 (2023).
Changes are numbered by the printed parent chain. Results are given in words; binding and its absence hold for the method and conditions named. In cells and extracts the contact can be indirect. These calls come from enrichment with a bait or labelling near it, and not all partners need be listed. For some of these results: No binding means not detected with the bait. Tags and fused reporters may be left off the sequences shown. Blank lines part the entries; values can stand above or below the molecule they belong to.

Protein sequences, listed by entry. Tags and fused reporters are not part of them.
UniProt P38159: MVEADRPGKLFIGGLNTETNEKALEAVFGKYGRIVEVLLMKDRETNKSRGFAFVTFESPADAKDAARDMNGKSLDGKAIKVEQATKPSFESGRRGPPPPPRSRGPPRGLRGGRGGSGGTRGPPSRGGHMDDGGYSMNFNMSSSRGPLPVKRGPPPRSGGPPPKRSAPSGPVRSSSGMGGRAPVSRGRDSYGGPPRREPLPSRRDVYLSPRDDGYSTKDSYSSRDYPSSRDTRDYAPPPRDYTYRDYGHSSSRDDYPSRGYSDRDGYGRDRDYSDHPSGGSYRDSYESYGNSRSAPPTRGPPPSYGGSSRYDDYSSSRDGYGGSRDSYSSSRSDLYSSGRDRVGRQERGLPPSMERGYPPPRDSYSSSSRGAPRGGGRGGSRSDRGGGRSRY
UniProt O14646: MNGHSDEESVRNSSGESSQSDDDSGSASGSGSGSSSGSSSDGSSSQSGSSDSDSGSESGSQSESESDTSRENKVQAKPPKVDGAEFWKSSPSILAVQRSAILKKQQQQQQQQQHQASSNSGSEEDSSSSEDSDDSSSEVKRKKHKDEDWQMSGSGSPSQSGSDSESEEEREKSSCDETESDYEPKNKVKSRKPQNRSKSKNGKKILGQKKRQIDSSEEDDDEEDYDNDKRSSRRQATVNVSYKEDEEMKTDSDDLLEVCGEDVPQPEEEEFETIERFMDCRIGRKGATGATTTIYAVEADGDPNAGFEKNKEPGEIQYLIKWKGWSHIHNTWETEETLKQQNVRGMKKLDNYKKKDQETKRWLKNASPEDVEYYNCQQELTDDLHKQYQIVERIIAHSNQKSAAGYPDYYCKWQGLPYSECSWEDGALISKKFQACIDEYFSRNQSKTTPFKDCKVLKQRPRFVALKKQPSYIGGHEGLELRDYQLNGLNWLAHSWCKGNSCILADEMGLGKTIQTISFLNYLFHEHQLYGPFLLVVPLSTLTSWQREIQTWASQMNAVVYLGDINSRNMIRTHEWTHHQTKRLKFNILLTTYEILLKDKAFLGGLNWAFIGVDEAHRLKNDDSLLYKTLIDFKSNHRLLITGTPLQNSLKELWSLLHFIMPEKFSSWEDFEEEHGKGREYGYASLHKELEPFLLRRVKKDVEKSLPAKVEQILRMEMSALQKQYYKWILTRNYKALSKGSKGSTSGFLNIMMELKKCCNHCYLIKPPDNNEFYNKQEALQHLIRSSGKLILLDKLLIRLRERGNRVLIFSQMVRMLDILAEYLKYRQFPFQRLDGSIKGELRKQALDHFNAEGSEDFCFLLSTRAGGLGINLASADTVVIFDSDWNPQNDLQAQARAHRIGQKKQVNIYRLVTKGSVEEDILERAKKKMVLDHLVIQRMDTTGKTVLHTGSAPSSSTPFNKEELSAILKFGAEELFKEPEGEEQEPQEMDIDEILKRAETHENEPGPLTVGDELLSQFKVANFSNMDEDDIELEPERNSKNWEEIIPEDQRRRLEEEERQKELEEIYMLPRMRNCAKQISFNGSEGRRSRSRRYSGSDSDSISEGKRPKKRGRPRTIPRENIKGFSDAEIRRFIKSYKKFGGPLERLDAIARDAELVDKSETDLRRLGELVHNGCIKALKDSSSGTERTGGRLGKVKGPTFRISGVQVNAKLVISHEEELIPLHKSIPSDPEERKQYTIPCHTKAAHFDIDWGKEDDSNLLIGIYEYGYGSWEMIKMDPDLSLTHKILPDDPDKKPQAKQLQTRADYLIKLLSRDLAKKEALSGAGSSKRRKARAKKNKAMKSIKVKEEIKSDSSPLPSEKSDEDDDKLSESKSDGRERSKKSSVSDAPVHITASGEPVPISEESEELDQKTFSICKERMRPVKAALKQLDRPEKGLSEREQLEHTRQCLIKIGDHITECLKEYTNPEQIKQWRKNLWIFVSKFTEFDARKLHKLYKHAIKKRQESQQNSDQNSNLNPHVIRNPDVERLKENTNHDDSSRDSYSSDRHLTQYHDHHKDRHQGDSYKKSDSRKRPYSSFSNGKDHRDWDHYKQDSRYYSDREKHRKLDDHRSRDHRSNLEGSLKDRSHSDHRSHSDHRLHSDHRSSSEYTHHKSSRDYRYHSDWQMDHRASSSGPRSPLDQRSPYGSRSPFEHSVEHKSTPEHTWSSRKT

What was measured:
[1] = target: T1, eGFP-GGSG-Flag-RBM20-P633L (human) (UniProt Q5T481); assay: affinity purification with mass spectrometry; GFP-Trap magnetic particles, 1 mg of nuclear and insoluble fraction of HeLa expressing eGFP-RBM20 (WT, P633L, R634Q, RSS), 4 °C 3 h; washes with 150 mM NaCl, 0.1% NP-40; TMT LC-MS/MS; hits against a no-bait control
T1 sequence: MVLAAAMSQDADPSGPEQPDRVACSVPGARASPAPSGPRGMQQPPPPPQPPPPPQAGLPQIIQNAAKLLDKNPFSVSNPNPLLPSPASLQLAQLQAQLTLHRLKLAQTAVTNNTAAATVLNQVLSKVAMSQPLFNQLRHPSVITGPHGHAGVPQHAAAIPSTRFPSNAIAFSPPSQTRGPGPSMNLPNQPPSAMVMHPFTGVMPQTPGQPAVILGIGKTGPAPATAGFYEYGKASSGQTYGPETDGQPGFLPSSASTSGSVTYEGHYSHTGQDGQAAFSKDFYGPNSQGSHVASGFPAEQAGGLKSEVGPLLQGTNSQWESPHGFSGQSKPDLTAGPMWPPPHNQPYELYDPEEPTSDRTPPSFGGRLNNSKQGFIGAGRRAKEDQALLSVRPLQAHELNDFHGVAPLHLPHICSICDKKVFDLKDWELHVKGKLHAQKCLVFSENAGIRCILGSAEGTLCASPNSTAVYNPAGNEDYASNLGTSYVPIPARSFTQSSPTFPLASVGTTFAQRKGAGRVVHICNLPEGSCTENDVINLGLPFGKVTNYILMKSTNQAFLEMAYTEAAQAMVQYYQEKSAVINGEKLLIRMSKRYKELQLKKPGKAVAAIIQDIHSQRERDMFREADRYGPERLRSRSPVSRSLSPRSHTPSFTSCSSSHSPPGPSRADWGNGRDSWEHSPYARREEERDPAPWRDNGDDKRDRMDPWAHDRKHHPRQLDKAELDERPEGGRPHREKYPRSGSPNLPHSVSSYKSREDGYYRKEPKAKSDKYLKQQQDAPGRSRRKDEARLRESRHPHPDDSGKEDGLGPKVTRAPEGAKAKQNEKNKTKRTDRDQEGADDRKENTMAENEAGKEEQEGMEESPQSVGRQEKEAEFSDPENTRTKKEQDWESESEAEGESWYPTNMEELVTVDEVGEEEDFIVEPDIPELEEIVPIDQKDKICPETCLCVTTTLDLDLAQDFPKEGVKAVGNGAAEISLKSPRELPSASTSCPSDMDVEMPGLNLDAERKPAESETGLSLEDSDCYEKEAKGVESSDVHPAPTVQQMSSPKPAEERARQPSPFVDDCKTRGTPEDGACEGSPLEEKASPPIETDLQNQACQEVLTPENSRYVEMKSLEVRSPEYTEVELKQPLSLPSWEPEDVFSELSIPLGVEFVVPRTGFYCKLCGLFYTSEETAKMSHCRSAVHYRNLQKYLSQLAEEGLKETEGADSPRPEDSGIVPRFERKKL

[2] = target: T2, eGFP-GGSG-Flag-RBM20-R634Q (human) (UniProt Q5T481); assay: affinity purification with mass spectrometry; GFP-Trap magnetic particles, 1 mg of cytoplasmic fraction of HeLa expressing eGFP-RBM20 (WT, P633L, R634Q, RSS), 4 °C 3 h; washes with 150 mM NaCl, 0.1% NP-40; TMT LC-MS/MS; hits against a no-bait control
T2 sequence: T1 sequence with L633P, R634Q

[3] = target: T1, eGFP-GGSG-Flag-RBM20-P633L (human); assay: as above

binding [1]: binds
Molecule: RBMX (from UniProt P38159 1-391)

binding [1]: binds
B3: RBM15 (protein, UniProt Q96T37 1-977)
chain: MRTAGRDPVPRRSPRWRRAVPLCETSAGRRVTQLRGDDLRRPATMKGKERSPVKAKRSRGGEDSTSRGERSKKLGGSGGSNGSSSGKTDSGGGSRRSLHLDKSSSRGGSREYDTGGGSSSSRLHSYSSPSTKNSSGGGESRSSSRGGGGESRSSGAASSAPGGGDGAEYKTLKISELGSQLSDEAVEDGLFHEFKRFGDVSVKISHLSGSGSGDERVAFVNFRRPEDARAAKHARGRLVLYDRPLKIEAVYVSRRRSRSPLDKDTYPPSASVVGASVGGHRHPPGGGGGQRSLSPGGAALGYRDYRLQQLALGRLPPPPPPPLPRDLERERDYPFYERVRPAYSLEPRVGAGAGAAPFREVDEISPEDDQRANRTLFLGNLDITVTESDLRRAFDRFGVITEVDIKRPSRGQTSTYGFLKFENLDMSHRAKLAMSGKIIIRNPIKIGYGKATPTTRLWVGGLGPWVPLAALAREFDRFGTIRTIDYRKGDSWAYIQYESLDAAHAAWTHMRGFPLGGPDRRLRVDFADTEHRYQQQYLQPLPLTHYELVTDAFGHRAPDPLRGARDRTPPLLYRDRDRDLYPDSDWVPPPPPVRERSTRTAATSVPAYEPLDSLDRRRDGWSLDRDRGDRDLPSSRDQPRKRRLPEESGGRHLDRSPESDRPRKRHCAPSPDRSPELSSSRDRYNSDNDRSSRLLLERPSPIRDRRGSLEKSQGDKRDRKNSASAERDRKHRTTAPTEGKSPLKKEDRSDGSAPSTSTASSKLKSPSQKQDGGTAPVASASPKLCLAWQGMLLLKNSNFPSNMHLLQGDLQVASSLLVEGSTGGKVAQLKITQRLRLDQPKLDEVTRRIKVAGPNGYAILLAVPGSSDSRSSSSSAASDTATSTQRPLRNLVSYLKQKQAAGVISLPVGGNKDKENTGVLHAFPPCEFSQQFLDSPAKALAKSEEDYLVMIIVRGFGFQIGVRYENKKRENLALTLL

The next lines start with the molecule.

Molecule: CHD1 (from UniProt O14646 1-1710)
binding [2]: no binding
binding [3]: no binding

B1: MOV10 (protein, UniProt Q9HCE1 1-1003)
chain: MPSKFSCRQLREAGQCFESFLVVRGLDMETDRERLRTIYNRDFKISFGTPAPGFSSMLYGMKIANLAYVTKTRVRFFRLDRWADVRFPEKRRMKLGSDISKHHKSLLAKIFYDRAEYLHGKHGVDVEVQGPHEARDGQLLIRLDLNRKEVLTLRLRNGGTQSVTLTHLFPLCRTPQFAFYNEDQELPCPLGPGECYELHVHCKTSFVGYFPATVLWELLGPGESGSEGAGTFYIARFLAAVAHSPLAAQLKPMTPFKRTRITGNPVVTNRIEEGERPDRAKGYDLELSMALGTYYPPPRLRQLLPMLLQGTSIFTAPKEIAEIKAQLETALKWRNYEVKLRLLLHLEELQMEHDIRHYDLESVPMTWDPVDQNPRLLTLEVPGVTESRPSVLRGDHLFALLSSETHQEDPITYKGFVHKVELDRVKLSFSMSLLSRFVDGLTFKVNFTFNRQPLRVQHRALELTGRWLLWPMLFPVAPRDVPLLPSDVKLKLYDRSLESNPEQLQAMRHIVTGTTRPAPYIIFGPPGTGKTVTLVEAIKQVVKHLPKAHILACAPSNSGADLLCQRLRVHLPSSIYRLLAPSRDIRMVPEDIKPCCNWDAKKGEYVFPAKKKLQEYRVLITTLITAGRLVSAQFPIDHFTHIFIDEAGHCMEPESLVAIAGLMEVKETGDPGGQLVLAGDPRQLGPVLRSPLTQKHGLGYSLLERLLTYNSLYKKGPDGYDPQFITKLLRNYRSHPTILDIPNQLYYEGELQACADVVDRERFCRWAGLPRQGFPIIFHGVMGKDEREGNSPSFFNPEEAATVTSYLKLLLAPSSKKGKARLSPRSVGVISPYRKQVEKIRYCITKLDRELRGLDDIKDLKVGSVEEFQGQERSVILISTVRSSQSFVQLDLDFNLGFLKNPKRFNVAVTRAKALLIIVGNPLLLGHDPDWKVFLEFCKENGGYTGCPFPAKLDLQQGQNLLQGLSKLSPSTSGPHSHDYLPQEREGEGGLSLQVEPEWRNEL
binding [2]: binds
binding [3]: binds

B2: RBM14 (protein, UniProt Q96PK6 1-669)
chain: MKIFVGNVDGADTTPEELAALFAPYGTVMSCAVMKQFAFVHMRENAGALRAIEALHGHELRPGRALVVEMSRPRPLNTWKIFVGNVSAACTSQELRSLFERRGRVIECDVVKDYAFVHMEKEADAKAAIAQLNGKEVKGKRINVELSTKGQKKGPGLAVQSGDKTKKPGAGDTAFPGTGGFSATFDYQQAFGNSTGGFDGQARQPTPPFFGRDRSPLRRSPPRASYVAPLTAQPATYRAQPSVSLGAAYRAQPSASLGVGYRTQPMTAQAASYRAQPSVSLGAPYRGQLASPSSQSAAASSLGPYGGAQPSASALSSYGGQAAAASSLNSYGAQGSSLASYGNQPSSYGAQAASSYGVRAAASSYNTQGAASSLGSYGAQAASYGAQSAASSLAYGAQAASYNAQPSASYNAQSAPYAAQQAASYSSQPAAYVAQPATAAAYASQPAAYAAQATTPMAGSYGAQPVVQTQLNSYGAQASMGLSGSYGAQSAAAATGSYGAAAAYGAQPSATLAAPYRTQSSASLAASYAAQQHPQAAASYRGQPGNAYDGAGQPSAAYLSMSQGAVANANSTPPPYERTRLSPPRASYDDPYKKAVAMSKRYGSDRRLAELSDYRRLSESQLSFRRSPTKSSLDYRRLPDAHSDYARYSGSYNDYLRAAQMHSGYQRRM
binding [1]: binds
